The target in the assay is CK2α (endogenous, HEK293 cells) (human (endogenous in HEK293)) (UniProt P68400). Nature of the assay: co-IP; immunoprecipitation with monoclonal anti-CK2 antibody 6A from the cytosolic or nuclear fraction of HEK293 cells expressing a FLAG-tagged pCDNA3 construct, synchronously progressed to late G1; Western blot. (In western blotting, separated proteins are transferred to a membrane and probed.)

The chains behind the UniProt entries cited, without tags or fusion partners.
UniProt P68400: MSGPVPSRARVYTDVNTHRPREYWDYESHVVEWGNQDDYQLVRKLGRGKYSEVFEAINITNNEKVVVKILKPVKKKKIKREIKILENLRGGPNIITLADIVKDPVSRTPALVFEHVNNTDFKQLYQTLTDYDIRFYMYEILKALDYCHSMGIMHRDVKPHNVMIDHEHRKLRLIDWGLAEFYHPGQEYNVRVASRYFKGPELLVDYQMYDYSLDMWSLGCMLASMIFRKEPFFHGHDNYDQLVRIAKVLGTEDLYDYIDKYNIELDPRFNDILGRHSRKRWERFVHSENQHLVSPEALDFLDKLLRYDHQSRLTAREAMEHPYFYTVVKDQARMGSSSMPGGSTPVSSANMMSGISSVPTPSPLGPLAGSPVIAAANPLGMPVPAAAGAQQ
UniProt O00571: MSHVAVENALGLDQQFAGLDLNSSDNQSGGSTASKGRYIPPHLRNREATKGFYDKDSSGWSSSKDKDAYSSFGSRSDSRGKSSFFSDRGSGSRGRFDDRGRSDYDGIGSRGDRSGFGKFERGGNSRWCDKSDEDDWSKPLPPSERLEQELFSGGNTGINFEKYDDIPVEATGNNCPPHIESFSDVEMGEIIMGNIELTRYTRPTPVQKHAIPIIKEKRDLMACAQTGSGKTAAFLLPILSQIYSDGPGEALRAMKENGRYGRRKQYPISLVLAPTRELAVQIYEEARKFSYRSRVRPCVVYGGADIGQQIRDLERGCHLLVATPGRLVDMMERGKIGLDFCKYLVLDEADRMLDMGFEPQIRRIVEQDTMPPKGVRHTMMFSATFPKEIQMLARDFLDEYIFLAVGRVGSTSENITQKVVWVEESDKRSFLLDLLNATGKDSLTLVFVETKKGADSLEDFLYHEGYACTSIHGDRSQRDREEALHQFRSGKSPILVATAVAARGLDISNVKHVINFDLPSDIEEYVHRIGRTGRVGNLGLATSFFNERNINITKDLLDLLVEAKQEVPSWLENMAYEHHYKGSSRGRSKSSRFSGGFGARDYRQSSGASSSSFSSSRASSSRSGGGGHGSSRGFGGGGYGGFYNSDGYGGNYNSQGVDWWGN
UniProt P60842: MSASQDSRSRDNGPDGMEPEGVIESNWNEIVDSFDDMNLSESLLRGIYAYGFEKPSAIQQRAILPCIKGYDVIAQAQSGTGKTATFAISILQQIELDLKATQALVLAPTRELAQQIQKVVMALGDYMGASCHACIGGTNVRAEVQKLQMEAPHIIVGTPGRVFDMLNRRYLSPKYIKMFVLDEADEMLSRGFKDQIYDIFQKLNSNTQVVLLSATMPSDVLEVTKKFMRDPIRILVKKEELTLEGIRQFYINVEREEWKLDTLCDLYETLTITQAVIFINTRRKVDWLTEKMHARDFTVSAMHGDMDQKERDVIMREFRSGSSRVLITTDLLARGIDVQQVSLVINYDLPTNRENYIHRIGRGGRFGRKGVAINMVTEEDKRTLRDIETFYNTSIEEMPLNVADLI
UniProt Q9NYV6: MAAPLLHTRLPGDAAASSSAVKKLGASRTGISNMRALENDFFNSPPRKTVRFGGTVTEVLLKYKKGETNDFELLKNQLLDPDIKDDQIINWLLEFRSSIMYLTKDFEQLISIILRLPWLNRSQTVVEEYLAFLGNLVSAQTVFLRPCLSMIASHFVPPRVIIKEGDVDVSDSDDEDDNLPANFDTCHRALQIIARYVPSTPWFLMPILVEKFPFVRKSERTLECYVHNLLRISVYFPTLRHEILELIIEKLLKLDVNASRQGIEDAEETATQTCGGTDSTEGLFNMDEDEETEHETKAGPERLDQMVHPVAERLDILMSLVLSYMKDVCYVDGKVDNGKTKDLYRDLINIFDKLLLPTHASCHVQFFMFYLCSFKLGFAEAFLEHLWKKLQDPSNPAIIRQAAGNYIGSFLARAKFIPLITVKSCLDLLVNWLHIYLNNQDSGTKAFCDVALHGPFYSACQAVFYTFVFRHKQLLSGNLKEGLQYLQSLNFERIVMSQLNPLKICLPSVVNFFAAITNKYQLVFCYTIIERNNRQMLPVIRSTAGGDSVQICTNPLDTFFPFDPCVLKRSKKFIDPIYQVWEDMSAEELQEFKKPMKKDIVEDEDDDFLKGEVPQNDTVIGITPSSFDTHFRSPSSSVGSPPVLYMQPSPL
UniProt P08047: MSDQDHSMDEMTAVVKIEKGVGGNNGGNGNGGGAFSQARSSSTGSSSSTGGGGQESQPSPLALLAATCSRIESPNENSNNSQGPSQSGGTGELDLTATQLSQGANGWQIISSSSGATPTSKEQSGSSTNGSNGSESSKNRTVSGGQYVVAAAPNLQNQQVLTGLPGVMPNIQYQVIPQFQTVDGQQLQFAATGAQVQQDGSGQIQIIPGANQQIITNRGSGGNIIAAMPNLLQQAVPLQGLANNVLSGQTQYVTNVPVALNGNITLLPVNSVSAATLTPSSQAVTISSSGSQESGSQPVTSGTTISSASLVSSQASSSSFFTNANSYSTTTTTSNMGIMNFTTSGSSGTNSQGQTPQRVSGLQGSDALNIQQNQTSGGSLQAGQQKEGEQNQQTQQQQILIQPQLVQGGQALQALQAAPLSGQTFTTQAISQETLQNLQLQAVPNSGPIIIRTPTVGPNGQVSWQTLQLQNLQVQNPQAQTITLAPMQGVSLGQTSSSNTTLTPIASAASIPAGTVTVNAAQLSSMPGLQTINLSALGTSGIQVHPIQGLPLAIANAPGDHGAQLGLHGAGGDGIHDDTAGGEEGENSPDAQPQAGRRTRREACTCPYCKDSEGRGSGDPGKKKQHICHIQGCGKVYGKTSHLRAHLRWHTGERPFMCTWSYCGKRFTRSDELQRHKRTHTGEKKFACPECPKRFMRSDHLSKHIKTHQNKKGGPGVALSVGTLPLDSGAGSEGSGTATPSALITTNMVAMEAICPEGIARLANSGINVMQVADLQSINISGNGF

The source of these data is PMC10618106.

These are yes or no findings as the source states them, for the method shown. Binding seen in cells or lysates may run through a third protein. Some results given as binding are weak or reduced against the parent protein; the word gives no strength. Tags and fused reporters may be left off the sequences shown.

For “FLAG-tagged DDX3X (from UniProt O00571 1-662)”, the binding result is listed as “binds”.

Take “FLAG-tagged EIF4A1 (from UniProt P60842 1-406)”: the binding result was “binds”.

“FLAG-tagged RRN3/TIF-1A (from UniProt Q9NYV6 1-651)”: the binding entry is recorded as “binds”.

Take “FLAG-tagged SP1 (from UniProt P08047 1-785)”: the binding result is “binds”.

B1: FLAG-tagged TAF1A (protein, UniProt Q15573 1-450)
chain: MSDFSEELKGPVTDDEEVETSVLSGAGMHFPWLQTYVETVAIGGKRRKDFAQTTSACLSFIQEALLKHQWQQAAEYMYSYFQTLEDSDSYKRQAAPEIIWKLGSEILFYHPKSNMESFNTFANRMKNIGVMNYLKISLQHALYLLHHGMLKDAKRNLSEAETWRHGENTSSREILINLIQAYKGLLQYYTWSEKKMELSKLDKDDYAYNAVAQDVFNHSWKTSANISALIKIPGVWDPFVKSYVEMLEFYGDRDGAQEVLTNYAYDEKFPSNPNAHIYLYNFLKRQKAPRSKLISVLKILYQIVPSHKLMLEFHTLLRKSEKEEHRKLGLEVLFGVLDFAGCTKNITAWKYLAKYLKNILMGNHLAWVQEEWNSRKNWWPGFHFSYFWAKSDWKEDTALACEKAFVAGLLLGKGCRYFRYILKQDHQILGKKIKRMKRSVKKYSIVNPRL
With B1, the binding entry is given as “binds”.

B2: FLAG-tagged NOLC1 (protein, UniProt Q14978 1-699)
chain: MADAGIRRVVPSDLYPLVLGFLRDNQLSEVANKFAKATGATQQDANASSLLDIYSFWLKSAKVPERKLQANGPVAKKAKKKASSSDSEDSSEEEEEVQGPPAKKAAVPAKRVGLPPGKAAAKASESSSSEESSDDDDEEDQKKQPVQKGVKPQAKAAKAPPKKAKSSDSDSDSSSEDEPPKNQKPKITPVTVKAQTKAPPKPARAAPKIANGKAASSSSSSSSSSSSDDSEEEKAAATPKKTVPKKQVVAKAPVKAATTPTRKSSSSEDSSSDEEEEQKKPMKNKPGPYSSVPPPSAPPPKKSLGTQPPKKAVEKQQPVESSEDSSDESDSSSEEEKKPPTKAVVSKATTKPPPAKKAAESSSDSSDSDSSEDDEAPSKPAGTTKNSSNKPAVTTKSPAVKPAAAPKQPVGGGQKLLTRKADSSSSEEESSSSEEEKTKKMVATTKPKATAKAALSLPAKQAPQGSRDSSSDSDSSSSEEEEEKTSKSAVKKKPQKVAGGAAPSKPASAKKGKAESSNSSSSDDSSEEEEEKLKGKGSPRPQAPKANGTSALTAQNGKAAKNSEEEEEEKKKAAVVVSKSGSLKKRKQNEAAKEAETPQAKKIKLQTPNTFPKRKKGEKRASSPFRRVREEEIEVDSRVADNSFDAKRGAAGDWGERANQVLKFTKGKSFRHEKTKKKRGSYRGGSISVQVNSIKFDSE
For B2, the binding entry is “binds”.

B3: FLAG-tagged DDX21 (protein, UniProt Q9NR30 1-783)
chain: MPGKLRSDAGLESDTAMKKGETLRKQTEEKEKKEKPKSDKTEEIAEEEETVFPKAKQVKKKAEPSEVDMNSPKSKKAKKKEEPSQNDISPKTKSLRKKKEPIEKKVVSSKTKKVTKNEEPSEEEIDAPKPKKMKKEKEMNGETREKSPKLKNGFPHPEPDCNPSEAASEESNSEIEQEIPVEQKEGAFSNFPISEETIKLLKGRGVTFLFPIQAKTFHHVYSGKDLIAQARTGTGKTFSFAIPLIEKLHGELQDRKRGRAPQVLVLAPTRELANQVSKDFSDITKKLSVACFYGGTPYGGQFERMRNGIDILVGTPGRIKDHIQNGKLDLTKLKHVVLDEVDQMLDMGFADQVEEILSVAYKKDSEDNPQTLLFSATCPHWVFNVAKKYMKSTYEQVDLIGKKTQKTAITVEHLAIKCHWTQRAAVIGDVIRVYSGHQGRTIIFCETKKEAQELSQNSAIKQDAQSLHGDIPQKQREITLKGFRNGSFGVLVATNVAARGLDIPEVDLVIQSSPPKDVESYIHRSGRTGRAGRTGVCICFYQHKEEYQLVQVEQKAGIKFKRIGVPSATEIIKASSKDAIRLLDSVPPTAISHFKQSAEKLIEEKGAVEALAAALAHISGATSVDQRSLINSNVGFVTMILQCSIEMPNISYAWKELKEQLGEEIDSKVKGMVFLKGKLGVCFDVPTASVTEIQEKWHDSRRWQLSVATEQPELEGPREGYGGFRGQREGSRGFRGQRDGNRRFRGQREGSRGPRGQRSGGGNKSNRSQNKGQKRSFSKAFGQ
For the molecule B3, the binding result is on record as “binds”.
